Among the data in ChEMBL document CHEMBL1155535, “Synthesis and biological evaluation of tricyclic anilinopyrimidines as IKKbeta inhibitors” (Bioorg Med Chem Lett, 2010) are solubility values, retold here.

A short description of the series: Aqueous solubility in at pH 7.4. Particulars: buffer.

The structures appear in SMILES notation. Converted amounts (≈) assume the structure as drawn.

The compound `NS(=O)(=O)c1ccc(Nc2nccc(-c3ccsc3)n2)cc1` came in with a solubility of 2 µg/mL (≈ 6.02 µM).

By solubility is commonly meant the dissolved amount per volume that the medium holds. Read a low solubility as little dissolved substance.
